In paper PMC10065062:
These are yes or no findings as the source states them, for the method shown. Binding seen in cells or lysates may run through a third protein. Some binding calls cover weakened binding; strength is not graded here.

By UniProt entry, the sequences of proteins in these tests, tags left out.
UniProt Q61221: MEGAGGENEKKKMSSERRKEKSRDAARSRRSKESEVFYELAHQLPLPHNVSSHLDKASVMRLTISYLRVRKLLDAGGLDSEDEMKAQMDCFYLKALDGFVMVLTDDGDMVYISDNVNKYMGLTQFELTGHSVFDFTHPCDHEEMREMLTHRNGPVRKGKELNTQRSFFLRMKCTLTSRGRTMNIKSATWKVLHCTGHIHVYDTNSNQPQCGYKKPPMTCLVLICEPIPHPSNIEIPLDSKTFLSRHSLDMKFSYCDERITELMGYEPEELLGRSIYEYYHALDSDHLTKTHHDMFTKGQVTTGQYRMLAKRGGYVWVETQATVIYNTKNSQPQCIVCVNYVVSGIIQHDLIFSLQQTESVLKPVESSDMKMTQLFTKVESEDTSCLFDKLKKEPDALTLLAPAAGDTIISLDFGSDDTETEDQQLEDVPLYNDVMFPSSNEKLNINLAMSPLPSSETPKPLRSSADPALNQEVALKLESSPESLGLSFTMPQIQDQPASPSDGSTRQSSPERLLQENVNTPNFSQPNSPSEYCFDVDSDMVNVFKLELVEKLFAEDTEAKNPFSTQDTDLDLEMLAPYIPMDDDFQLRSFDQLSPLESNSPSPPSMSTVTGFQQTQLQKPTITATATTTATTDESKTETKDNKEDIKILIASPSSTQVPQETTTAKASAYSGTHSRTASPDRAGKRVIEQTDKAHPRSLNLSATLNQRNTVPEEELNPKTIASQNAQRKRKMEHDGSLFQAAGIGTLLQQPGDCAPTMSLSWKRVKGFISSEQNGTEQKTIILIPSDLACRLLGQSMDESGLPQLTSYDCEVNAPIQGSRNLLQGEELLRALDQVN
UniProt P52480: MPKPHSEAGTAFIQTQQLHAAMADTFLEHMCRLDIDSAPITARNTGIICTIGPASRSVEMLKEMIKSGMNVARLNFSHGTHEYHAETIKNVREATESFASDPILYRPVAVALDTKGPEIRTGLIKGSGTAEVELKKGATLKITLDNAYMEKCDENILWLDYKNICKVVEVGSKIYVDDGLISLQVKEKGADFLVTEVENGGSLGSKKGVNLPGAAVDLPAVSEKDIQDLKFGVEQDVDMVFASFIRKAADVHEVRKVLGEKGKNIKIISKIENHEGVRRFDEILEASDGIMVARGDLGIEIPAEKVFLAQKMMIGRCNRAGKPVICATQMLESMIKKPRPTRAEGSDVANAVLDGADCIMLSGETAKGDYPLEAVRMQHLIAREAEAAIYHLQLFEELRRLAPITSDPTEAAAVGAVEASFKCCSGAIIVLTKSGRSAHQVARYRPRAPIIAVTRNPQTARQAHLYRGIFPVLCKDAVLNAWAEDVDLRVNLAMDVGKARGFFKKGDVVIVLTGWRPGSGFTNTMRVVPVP

Molecular target: HIF-1α (mouse (endogenous in BMDCs)) (UniProt Q61221)
Test: co-IP; BMDCs stimulated with 2 μg/mL cGAMP for 4 hours in the presence or absence of TEPP-46 (100 μM); lysis buffer 50 mM Tris-HCl, 150 mM NaCl, 1 mM EDTA, 1% Triton X-100, 10% glycerol; supernatants immunoprecipitated with antibodies and protein G-agarose beads overnight

binding: binds
Substance: pyruvate kinase M2 (from UniProt P52480 1-531) (enzyme)
